{
  "sequences": {"note": "Protein sequences, listed by entry. Tags and fused reporters are not part of them. Residues count along the entry.", "UniProt Q91ZX7, residues 20-4545": "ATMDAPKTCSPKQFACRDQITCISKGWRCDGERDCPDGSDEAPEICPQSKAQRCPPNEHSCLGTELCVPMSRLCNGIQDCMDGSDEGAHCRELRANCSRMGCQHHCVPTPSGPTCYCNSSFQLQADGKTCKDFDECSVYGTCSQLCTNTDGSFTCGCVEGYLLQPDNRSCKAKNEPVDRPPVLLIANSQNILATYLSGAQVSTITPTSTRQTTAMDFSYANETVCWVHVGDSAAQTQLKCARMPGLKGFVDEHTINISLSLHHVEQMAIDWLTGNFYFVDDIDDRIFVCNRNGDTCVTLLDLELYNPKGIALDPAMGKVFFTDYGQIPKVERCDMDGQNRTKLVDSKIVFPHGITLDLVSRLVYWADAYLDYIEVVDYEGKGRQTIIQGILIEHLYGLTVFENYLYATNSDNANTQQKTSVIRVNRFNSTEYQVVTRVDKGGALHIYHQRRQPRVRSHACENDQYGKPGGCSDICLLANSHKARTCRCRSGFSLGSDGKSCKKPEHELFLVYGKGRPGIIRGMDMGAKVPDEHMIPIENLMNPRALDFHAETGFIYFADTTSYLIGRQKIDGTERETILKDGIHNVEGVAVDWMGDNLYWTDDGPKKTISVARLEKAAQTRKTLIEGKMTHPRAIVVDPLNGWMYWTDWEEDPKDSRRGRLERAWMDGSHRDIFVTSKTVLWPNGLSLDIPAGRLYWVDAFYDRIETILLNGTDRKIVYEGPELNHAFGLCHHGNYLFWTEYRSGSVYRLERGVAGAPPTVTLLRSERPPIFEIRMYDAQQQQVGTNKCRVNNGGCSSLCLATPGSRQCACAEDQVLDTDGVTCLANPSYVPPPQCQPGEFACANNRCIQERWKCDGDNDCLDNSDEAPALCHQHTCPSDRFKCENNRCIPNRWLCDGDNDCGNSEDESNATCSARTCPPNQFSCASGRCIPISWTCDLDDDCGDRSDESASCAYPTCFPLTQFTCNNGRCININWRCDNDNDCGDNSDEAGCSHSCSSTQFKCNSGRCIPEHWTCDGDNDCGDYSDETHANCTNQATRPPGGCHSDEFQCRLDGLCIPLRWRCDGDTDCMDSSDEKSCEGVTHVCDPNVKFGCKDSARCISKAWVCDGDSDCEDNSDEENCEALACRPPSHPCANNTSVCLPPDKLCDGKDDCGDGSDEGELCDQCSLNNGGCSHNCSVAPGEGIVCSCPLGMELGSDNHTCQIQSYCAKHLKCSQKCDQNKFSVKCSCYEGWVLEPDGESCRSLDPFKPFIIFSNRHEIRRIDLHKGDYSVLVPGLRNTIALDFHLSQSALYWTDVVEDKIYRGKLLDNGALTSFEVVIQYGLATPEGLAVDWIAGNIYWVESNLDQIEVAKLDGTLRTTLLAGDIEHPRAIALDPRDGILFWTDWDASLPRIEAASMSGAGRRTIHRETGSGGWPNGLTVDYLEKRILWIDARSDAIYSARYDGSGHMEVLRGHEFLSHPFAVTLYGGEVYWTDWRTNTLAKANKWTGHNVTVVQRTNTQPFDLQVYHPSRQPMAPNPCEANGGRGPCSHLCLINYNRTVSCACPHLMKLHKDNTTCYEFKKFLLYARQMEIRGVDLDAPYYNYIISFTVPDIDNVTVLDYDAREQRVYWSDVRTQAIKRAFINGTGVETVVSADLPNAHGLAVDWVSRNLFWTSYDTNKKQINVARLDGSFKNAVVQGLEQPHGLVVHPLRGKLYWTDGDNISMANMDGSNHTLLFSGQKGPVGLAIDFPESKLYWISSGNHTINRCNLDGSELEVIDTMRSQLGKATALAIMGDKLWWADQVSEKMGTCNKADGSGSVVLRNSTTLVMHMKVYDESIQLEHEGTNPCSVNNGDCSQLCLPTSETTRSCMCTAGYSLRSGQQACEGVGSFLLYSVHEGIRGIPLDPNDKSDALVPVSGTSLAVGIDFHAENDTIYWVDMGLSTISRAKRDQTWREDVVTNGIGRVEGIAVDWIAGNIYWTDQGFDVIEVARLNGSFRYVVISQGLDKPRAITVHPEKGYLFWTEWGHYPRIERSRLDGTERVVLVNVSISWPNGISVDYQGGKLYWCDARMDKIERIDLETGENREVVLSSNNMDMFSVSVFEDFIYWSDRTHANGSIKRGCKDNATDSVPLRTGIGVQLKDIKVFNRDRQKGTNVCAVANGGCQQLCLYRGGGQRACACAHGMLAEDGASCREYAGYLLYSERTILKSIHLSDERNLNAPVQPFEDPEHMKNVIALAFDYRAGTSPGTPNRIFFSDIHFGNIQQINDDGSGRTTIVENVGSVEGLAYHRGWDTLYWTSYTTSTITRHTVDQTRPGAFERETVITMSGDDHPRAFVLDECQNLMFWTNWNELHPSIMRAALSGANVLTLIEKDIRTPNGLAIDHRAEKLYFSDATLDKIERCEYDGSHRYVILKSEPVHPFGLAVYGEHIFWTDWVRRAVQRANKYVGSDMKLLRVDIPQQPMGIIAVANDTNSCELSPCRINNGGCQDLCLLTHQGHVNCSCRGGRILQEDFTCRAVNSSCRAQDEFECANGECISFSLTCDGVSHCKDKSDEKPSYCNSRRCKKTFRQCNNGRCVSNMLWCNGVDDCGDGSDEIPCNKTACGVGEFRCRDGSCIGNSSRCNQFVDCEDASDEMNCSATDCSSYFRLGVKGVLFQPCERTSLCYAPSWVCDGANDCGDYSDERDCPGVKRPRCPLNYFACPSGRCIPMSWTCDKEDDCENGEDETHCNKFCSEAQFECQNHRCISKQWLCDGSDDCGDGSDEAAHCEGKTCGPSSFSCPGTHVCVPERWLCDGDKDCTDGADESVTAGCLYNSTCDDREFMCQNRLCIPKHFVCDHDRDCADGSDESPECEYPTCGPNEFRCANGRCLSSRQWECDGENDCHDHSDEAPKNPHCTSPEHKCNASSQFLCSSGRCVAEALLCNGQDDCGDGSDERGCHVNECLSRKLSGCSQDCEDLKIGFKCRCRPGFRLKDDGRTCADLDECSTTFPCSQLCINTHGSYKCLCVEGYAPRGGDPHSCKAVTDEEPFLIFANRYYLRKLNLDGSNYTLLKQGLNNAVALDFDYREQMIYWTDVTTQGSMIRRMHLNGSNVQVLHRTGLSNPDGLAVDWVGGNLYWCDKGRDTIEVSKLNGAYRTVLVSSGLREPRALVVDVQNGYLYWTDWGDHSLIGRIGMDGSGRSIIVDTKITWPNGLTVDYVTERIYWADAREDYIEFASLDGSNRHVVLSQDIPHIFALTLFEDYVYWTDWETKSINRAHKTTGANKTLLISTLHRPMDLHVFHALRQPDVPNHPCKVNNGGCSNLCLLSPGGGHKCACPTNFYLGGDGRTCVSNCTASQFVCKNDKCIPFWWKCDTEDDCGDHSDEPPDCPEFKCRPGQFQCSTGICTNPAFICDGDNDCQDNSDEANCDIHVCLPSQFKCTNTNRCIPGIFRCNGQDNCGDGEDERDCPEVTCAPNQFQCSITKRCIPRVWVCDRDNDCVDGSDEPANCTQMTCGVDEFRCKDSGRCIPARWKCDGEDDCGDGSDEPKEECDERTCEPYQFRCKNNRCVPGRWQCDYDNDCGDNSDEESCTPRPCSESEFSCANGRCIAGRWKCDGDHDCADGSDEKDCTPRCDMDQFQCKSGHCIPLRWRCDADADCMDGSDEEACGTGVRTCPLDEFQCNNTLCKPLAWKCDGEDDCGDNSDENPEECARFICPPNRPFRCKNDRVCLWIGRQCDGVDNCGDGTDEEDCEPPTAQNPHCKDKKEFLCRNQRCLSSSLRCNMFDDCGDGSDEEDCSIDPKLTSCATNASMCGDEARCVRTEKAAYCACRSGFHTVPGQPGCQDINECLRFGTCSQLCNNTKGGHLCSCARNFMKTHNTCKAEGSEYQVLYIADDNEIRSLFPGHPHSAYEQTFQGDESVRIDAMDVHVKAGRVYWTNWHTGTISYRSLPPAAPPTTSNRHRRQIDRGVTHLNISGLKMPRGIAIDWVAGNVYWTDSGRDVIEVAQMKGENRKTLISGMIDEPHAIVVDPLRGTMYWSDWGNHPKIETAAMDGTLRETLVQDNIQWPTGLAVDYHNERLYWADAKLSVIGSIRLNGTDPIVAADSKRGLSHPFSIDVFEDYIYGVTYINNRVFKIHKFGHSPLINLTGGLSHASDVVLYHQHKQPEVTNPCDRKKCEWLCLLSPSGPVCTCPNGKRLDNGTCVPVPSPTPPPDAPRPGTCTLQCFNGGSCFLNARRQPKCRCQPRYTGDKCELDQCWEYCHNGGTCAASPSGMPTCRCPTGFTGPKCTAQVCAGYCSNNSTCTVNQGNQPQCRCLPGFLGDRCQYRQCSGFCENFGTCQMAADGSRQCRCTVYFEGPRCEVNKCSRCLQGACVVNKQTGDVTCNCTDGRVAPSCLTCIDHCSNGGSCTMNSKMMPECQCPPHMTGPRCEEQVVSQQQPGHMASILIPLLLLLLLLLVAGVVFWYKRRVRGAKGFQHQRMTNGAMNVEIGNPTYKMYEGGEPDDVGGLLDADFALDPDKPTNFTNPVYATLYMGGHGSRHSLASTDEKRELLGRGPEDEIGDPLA"},
  "source": "paper PMC8980266",
  "key": {"[1]": {"biological_target": "T1, FLAG-Rab43 (Ras-related GTP-binding protein 43, from plasmid pcDNA3.1-3xflag-Rab43) (UniProt Q8CG50)", "T1 sequence": "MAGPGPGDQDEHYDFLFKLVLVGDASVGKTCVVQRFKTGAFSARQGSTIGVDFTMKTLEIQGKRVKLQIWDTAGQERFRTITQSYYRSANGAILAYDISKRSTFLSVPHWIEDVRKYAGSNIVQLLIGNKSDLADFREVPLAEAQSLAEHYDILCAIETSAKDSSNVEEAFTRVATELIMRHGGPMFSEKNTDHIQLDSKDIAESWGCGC", "assay": "co-IP; lysate (M-PER reagent) of RAW264.7 cells transfected with pcDNA3.1-3xflag-Rab43 for 48 h; anti-FLAG antibody (1:50) overnight, protein A/G agarose beads 3 h at 4°C; immunoblot with anti-CD91 antibody"}, "[2]": {"biological_target": "cluster of differentiation 91 (CD91), LDL receptor-related protein 1 (mouse (endogenous in RAW264.7)) (UniProt Q91ZX7)", "assay": "co-IP; lysate of RAW264.7 cells transfected with pcDNA3.1-GFP-Rab43; immunoprecipitated with anti-CD91 antibody, immunoblot with anti-GFP antibody"}},
  "note": "No constants are given. Whether binding was seen depends on the method and setting. In cells and extracts the contact can be indirect. Some binding calls cover weakened binding; strength is not graded here. Where a sequence is shown, tags or fusion partners need not be part of it.",
  "data": [
    {"molecule": "cluster of differentiation 91 (CD91), LDL receptor-related protein 1 (from UniProt Q91ZX7 20-4545)", "values": [
      {"measurement": "binding", "setting": "[1]", "result": "binds"}
    ]},
    {"molecule": "GFP-Rab43 (from plasmid pcDNA3.1-GFP-Rab43) (protein, UniProt Q8CG50 1-210) MAGPGPGDQDEHYDFLFKLVLVGDASVGKTCVVQRFKTGAFSARQGSTIGVDFTMKTLEIQGKRVKLQIWDTAGQERFRTITQSYYRSANGAILAYDISKRSTFLSVPHWIEDVRKYAGSNIVQLLIGNKSDLADFREVPLAEAQSLAEHYDILCAIETSAKDSSNVEEAFTRVATELIMRHGGPMFSEKNTDHIQLDSKDIAESWGCGC", "values": [
      {"measurement": "binding", "setting": "[2]", "result": "binds"}
    ]}
  ]
}
